{"source": "PubChem BioAssay AID504774 (Drosophila RNAi Screening Center, 2011)", "screen": "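Fly genes whose loss alters survival after alkylation damage to DNA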 (primary screen)", "system": "Drosophila Kc167 cells", "knock-down reagent": "long dsRNA against Drosophila genes, about 0.25 µg dsRNA per well", "time to read-out": "about 6 days: 3 days knock-down, then 3 days with or without MMS", "challenge": "methyl methanesulphonate 0.004% (w/v) for 3 days after knock-down", "read-out": "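ATP-dependent luminescence as a measure of live cells in MMS-exposed wells, quantile normalised within each plate, with replicate values also given as a mean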", "reading the numbers": "mean viability with MMS: higher = more surviving cells after MMS", "note": "The deposit covers about 23,000 reagents; this is an unselected part of those that have a named target and a result. 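Values are quantile-normalised luminescence on an arbitrary scale; higher means more cells surviving MMS.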 Reagents against one gene are numbered here. Names joined by + are all predicted targets of the reagent. Further read-outs or replicates are left out here."}
{"target": "CG16741", "reagent": 1, "mean viability with MMS": 3.32e6}
{"target": "CG6996", "reagent": 1, "mean viability with MMS": 3.40e6}
{"target": "Sqor (Sulfide quinone oxidoreductase)", "reagent": 1, "mean viability with MMS": 3.67e6}
{"target": "eIF4E4 (eukaryotic translation initiation factor 4E4)", "reagent": 1, "mean viability with MMS": 3.36e6}
{"target": "Piezo", "reagent": 1, "mean viability with MMS": 3.72e6}
{"target": "trp (transient receptor potential)", "reagent": 1, "mean viability with MMS": 3.56e6}
{"target": "bero (belly roll)", "reagent": 1, "mean viability with MMS": 3.74e6}
{"target": "Edem1 (ER degradation enhancer, mannosidase alpha-like 1)", "reagent": 1, "mean viability with MMS": 3.49e6}
{"target": "LBR (Lamin B receptor)", "reagent": 1, "mean viability with MMS": 2.70e6}
{"target": "CG18635", "reagent": 1, "mean viability with MMS": 1.95e6}
{"target": "CG9396", "reagent": 1, "mean viability with MMS": 3.76e6}
{"target": "CG33330 (retired record)", "reagent": 1, "mean viability with MMS": 3.19e6}
{"target": "CG33330 (retired record)", "reagent": 2, "mean viability with MMS": 3.65e6}
{"target": "TBPH (TAR DNA-binding protein-43 homolog)", "reagent": 1, "mean viability with MMS": 3.42e6}
{"target": "CG7465", "reagent": 1, "mean viability with MMS": 3.81e6}
{"target": "CG7465", "reagent": 2, "mean viability with MMS": 3.59e6}
{"target": "Vmat + CG13330", "reagent": 1, "mean viability with MMS": 3.81e6}
{"target": "TORIP (Torsin interacting protein)", "reagent": 1, "mean viability with MMS": 3.60e6}
{"target": "Hpf1 (Histone PARylation factor 1)", "reagent": 1, "mean viability with MMS": 3.74e6}
{"target": "Ssk (Snakeskin)", "reagent": 1, "mean viability with MMS": 3.67e6}
{"target": "Rpt6 (Regulatory particle triple-A ATPase 6)", "reagent": 1, "mean viability with MMS": 3.39e6}
{"target": "Ir67b (Ionotropic receptor 67b)", "reagent": 1, "mean viability with MMS": 3.52e6}
{"target": "cpx (complexin)", "reagent": 1, "mean viability with MMS": 3.46e6}
{"target": "CG12115", "reagent": 1, "mean viability with MMS": 3.70e6}
{"target": "CG7322", "reagent": 1, "mean viability with MMS": 3.56e6}
{"target": "CG6280", "reagent": 1, "mean viability with MMS": 3.60e6}
{"target": "Grl62c (Gustatory receptor-like 62c)", "reagent": 1, "mean viability with MMS": 3.65e6}
{"target": "ND-24L (NADH dehydrogenase (ubiquinone) 24 kDa subunit-like)", "reagent": 1, "mean viability with MMS": 3.37e6}
{"target": "Gr64a (Gustatory receptor 64a)", "reagent": 1, "mean viability with MMS": 3.24e6}
{"target": "Rab40", "reagent": 1, "mean viability with MMS": 3.44e6}
{"target": "CG13998", "reagent": 1, "mean viability with MMS": 3.40e6}
{"target": "Spn (Spinophilin)", "reagent": 1, "mean viability with MMS": 3.78e6}
{"target": "Spn (Spinophilin)", "reagent": 2, "mean viability with MMS": 3.39e6}
{"target": "Spn (Spinophilin)", "reagent": 3, "mean viability with MMS": 3.43e6}
{"target": "CG32132 (retired record)", "reagent": 1, "mean viability with MMS": 3.35e6}
{"target": "CG32132 (retired record)", "reagent": 2, "mean viability with MMS": 3.52e6}

3 entries from above, reformatted.
TBPH (TAR DNA-binding protein-43 homolog) → mean viability with MMS = 3.42e6
CG7465 #1 → mean viability with MMS = 3.81e6
CG7465 #2 → mean viability with MMS = 3.59e6
